This is one part of the list. These are raw signals, not scaled to a control.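 In the initial screen, polymyxin B was used at a concentration that permeabilizes Salmonella's outer membrane but not its inner membrane. Maximum growth was set by DMSO wells with or without polymyxin B. Since plates varied, data were ranked per plate, and compounds giving the lowest OD600 advanced as hits.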
Tested on: Salmonella enterica serovar Typhimurium SL1344
Test: bacterial growth OD600 after 18 h with compound and polymyxin B; higher = more bacterial growth (less inhibition)
Conditions: 50 µM, Mueller-Hinton broth

Row | SMILES | bacterial growth OD600 (polymyxin B 0.75 µg/mL) | bacterial growth OD600 (polymyxin B 1 µg/mL)
1 | CO[C@H]1[C@H](NC(=O)c2ccncc2)c2ccccc2C12CCN(C(=O)C1(C)CCCCC1)CC2 | 0.534 | 
2 | CCCn1ncc(CN2CCCC(CCC(=O)Nc3ccccc3F)C2)c1C (configuration not stated) |  | 1.18
3 | c1cnc(N2CCOCC2)c(CNC2C3CC4CC(C3)CC2C4)c1 (configuration not stated) |  | 0.811
4 | CCCN(CCC)c1ccc(C(=O)N2CCCN(c3ncccn3)CC2)cn1 |  | 0.852
5 | COc1ccc2cc(C(=O)C3CCCN(C(=O)C4CCCC4)C3)ccc2c1 (configuration not stated) |  | 0.444
6 | Cc1ccc2c(c1)CN(Cc1cnn(C)c1C)CC(c1ccsc1)O2 (configuration not stated) | 0.067 | 
7 | FC(F)(F)c1ccc(-c2noc(CN3CCC(N4CCSCC4)CC3)n2)cc1 |  | 0.919
8 | CC(C)CC(=O)Nc1ccnn1C1CCN(Cc2ccc(F)cc2Cl)CC1 | 0.457 | 
9 | Nc1ncc(CN2CCC(CO)(CCCc3ccccc3)CC2)cn1 | 0.906 | 
10 | O=C(c1cnc[nH]1)N1CCC(C2CCN(c3ncccn3)CC2)C1 (configuration not stated) | 0.859 | 
11 | Cc1cc(CNCC2(O)CCCN(CC(C)(C)C)C2=O)no1 (configuration not stated) | 0.784 | 
12 | CCn1ccnc1CNC1CC(=O)N(C2Cc3ccccc3C2)C1 (configuration not stated) |  | 0.937
13 | COCCNC(=O)c1ccc(OC)cc1OC1CCN(Cc2ccc(F)c(OC)c2)CC1 |  | 0.774
14 | Cc1ccccc1N1CCN(C2CCCN(C(=O)Cn3nc4ccccc4n3)C2)CC1 (configuration not stated) |  | 0.926
15 | COCC1CCCN(C(=O)c2ccc(N(C)C)nc2)C1 (configuration not stated) |  | 0.96
16 | COC(=O)c1c(S(=O)(=O)NCc2ccc(Cl)cc2)sc2c1CCN(C(=O)C1CCC1)C2 | 0.866 | 

Single records (already shown):
`Cc1ccccc1N1CCN(C2CCCN(C(=O)Cn3nc4ccccc4n3)C2)CC1` (configuration not stated) is listed with bacterial growth OD600 (polymyxin B 1 µg/mL): 0.926
`Cc1ccc2c(c1)CN(Cc1cnn(C)c1C)CC(c1ccsc1)O2` (configuration not stated) is listed with bacterial growth OD600 (polymyxin B 0.75 µg/mL): 0.067

Going on with the list:

Row | SMILES | bacterial growth OD600 (polymyxin B 0.75 µg/mL) | bacterial growth OD600 (polymyxin B 1 µg/mL)
17 | CC(C)c1nc(C(=O)N2CCOc3ccc(CN4CCN(c5ccc(F)cc5)CC4)cc3C2)cs1 | 0.562 | 
18 | CSc1cccc(CN2CCc3[nH]nc(-c4ccc5c(c4)OCO5)c3C2)c1 | 0.788 | 
19 | Cc1ccc(CC2(CCC(=O)N3CCC(C)CC3)CCC(=O)N2)cc1 (configuration not stated) | 0.758 | 
20 | Cc1cccc(CNC(=O)c2cc(COc3cccc(C(F)(F)F)c3)on2)n1 |  | 0.007
21 | O=CN1CCCN(C(=O)c2csc3nc(-c4cccc(F)c4)cn23)CC1 |  | 1.24
22 | CCCCC1CN(CCNC(=O)c2c(F)cccc2Cl)Cc2ccccc2O1 (configuration not stated) | 0.76 | 
23 | CN(C(=O)c1coc(COc2cccc(C(F)(F)F)c2)n1)C1CCOCC1 |  | 0.974
24 | CC(C)(C)CN1CCC(N2CCC(C(=O)NCc3ccccn3)CC2)CC1 |  | 1
25 | COc1cccc(-c2ccc(NC(=O)C3CCCN(Cc4cnn(C)c4C)C3)cc2)c1 (configuration not stated) |  | 0.744
26 | CCOC(=O)C1(Cc2ccc(Cl)cc2)CCN(C2CCCC2)CC1 |  | 0.9
27 | O=C(Nc1cccc(-c2cccc(Cl)c2)c1)C1CCN(C(=O)CCn2cnnn2)CC1 |  | 0.712
28 | CCOC(=O)C1(Cc2ccccc2C)CCCN(S(=O)(=O)c2c(C)n[nH]c2C)C1 (configuration not stated) |  | 0.585
29 | CC(C)N(C)Cc1nnnn1CC(=O)N1CCCC(OCc2ccccn2)C1 (configuration not stated) | 0.807 | 
30 | COc1ccc(C(=O)Nc2ccnn2C2CCN(C(=O)C3CC34CCC4)CC2)cc1 (configuration not stated) |  | 0.897
31 | CC1=C(C(=O)N2CCCC(C(=O)c3cccc4ccccc34)C2)OCCO1 (configuration not stated) |  | 0.795
32 | Cc1cc(C)c(C(=O)NC2CC(C)(C)Cc3nc(N4CCOCC4)ncc32)o1 (configuration not stated) | 1.09 | 
